PubChem BioAssay AID588781 | Weizmann Institute, 2011

Aim: 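Tyrosine kinases that adjust fibroblast polarity according to substrate rigidity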
System: human foreskin fibroblasts (HFF)
Reagent: siRNA against human genes
Conditions: cells plated on fibronectin-coated silicone of high versus low stiffness (range about 2 MPa to 5 kPa)
Detection: 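Imaging of phalloidin-labelled cells on fibronectin-coated silicone, stiff about 2 MPa or soft about 5 kPa; elongation, stress fibres, stable edges, each also as (stiff − soft)/stiff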
Scale: stiff-soft elongation difference: higher = elongation depends more strongly on substrate stiffness; aspect ratio, stiff substrate: higher = more elongated cells on stiff substrate
The whole screen tested 85 reagents; this is a random part of them. 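Knockdowns of interest may either weaken or strengthen the stiffness dependence of elongation, so both low and high differences matter.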 Not all columns of the deposit are shown. Not given: the amount of reagent, the time to read-out.

For TYRO3, the entry reads stiff-soft elongation difference 0; aspect ratio, stiff substrate 1.6.
Against FLT1, the entry reads stiff-soft elongation difference 0.21; aspect ratio, stiff substrate 1.9.
Silencing of KIT resulted in: stiff-soft elongation difference 0.28; aspect ratio, stiff substrate 1.8.
JAK3 showed stiff-soft elongation difference 0.38; aspect ratio, stiff substrate 2.4.
With knock-down of PTK6, the record shows stiff-soft elongation difference 0.18; aspect ratio, stiff substrate 1.8.
With knock-down of ROS1, the screen gave stiff-soft elongation difference 0.35; aspect ratio, stiff substrate 2.
Depletion of BLK came out at: stiff-soft elongation difference 0.21; aspect ratio, stiff substrate 1.9.

Part of the list above, set out differently:
{"gene":"KIT","stiff-soft elongation difference":0.28,"aspect ratio, stiff substrate":1.8}
{"gene":"JAK3","stiff-soft elongation difference":0.38,"aspect ratio, stiff substrate":2.4}
{"gene":"PTK6","stiff-soft elongation difference":0.18,"aspect ratio, stiff substrate":1.8}

The results go on.
With knock-down of FES, the record shows stiff-soft elongation difference 0.21; aspect ratio, stiff substrate 1.8.
After knock-down of EGFR the results were stiff-soft elongation difference 0.15; aspect ratio, stiff substrate 2.
After knock-down of SYK, the record shows stiff-soft elongation difference 0.35; aspect ratio, stiff substrate 2.
For IGF1R, the entry reads stiff-soft elongation difference 0.35; aspect ratio, stiff substrate 2.
Depletion of KDR came out at: stiff-soft elongation difference 0.05; aspect ratio, stiff substrate 2.1.
Depletion of CSF1R gave: stiff-soft elongation difference 0.02; aspect ratio, stiff substrate 1.3.
EPHA7 showed stiff-soft elongation difference 0.18; aspect ratio, stiff substrate 1.6.
After knock-down of LCK, the screen gave stiff-soft elongation difference 0.32; aspect ratio, stiff substrate 2.2.
For EPHA4, the values are stiff-soft elongation difference 0.25; aspect ratio, stiff substrate 2.
After knock-down of DDR2, the record shows stiff-soft elongation difference 0.53; aspect ratio, stiff substrate 4.5.
For ROR1 the deposit lists stiff-soft elongation difference 0.38; aspect ratio, stiff substrate 2.4.
After knock-down of TNK1, the screen gave stiff-soft elongation difference 0.32; aspect ratio, stiff substrate 2.2.
